# Reference: PubChem BioAssay AID2685 (National Center for Advancing Translational Sciences (NCATS), 2010)
# The other results are listed elsewhere or left out. Shown are side measurements of this screen, not its main read-out; they come without a call. The list favours compounds with an active or inconclusive main result. Words in brackets tell the shape of the fitted curve; partial curves, single points and poor fits give uncertain potencies.
# Test: qHTS Assay for Lipid Storage Modulators in Drosophila S3 Cells;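 as to cell number change: cells counted by Cell Tracker Red CMTPX staining in the red channel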
# Details: BODIPY lipid droplet fluorescence, 18-24 h; for cell number change: measured here: cell count max response, cells fed with added oleic acid
# Summary of the method: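 Laser-scanning cytometry quantifies lipid droplet accumulation (500–530 nm total intensity; droplet/cell object ratio) in oleic acid-fed (400 uM added) Drosophila S3 cells treated with a concentration series. 20 uM Triacsin C defined 100% inhibition.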
# [1] = measured here: cell number channel AC50, cells fed with added oleic acid
# [2] = measured here: lipid fluorescence (Fed channel) AC50, cells fed with added oleic acid
SMILES,cell number change,AC50 [1],AC50 [2]
Cc1cccc2[nH]c(SCC(=O)O)nc12,-33.8%,"116 nM [falling, full curve]","103 nM [falling, full curve, poor fit]"
COc1ccc(CC(=O)NCc2nnc(SCC(=O)Nc3nccs3)n2-c2ccccc2)cc1,,,"2310 nM [falling, single point]"
CC(C)(C)Sc1nc(O)cc(=O)[nH]1,-32.9%,"4610 nM [falling, full curve, poor fit]","5800 nM [falling, full curve]"
COCCn1ccc2c(OCC(=O)Nc3cc(OC)ccc3OC)cccc2c1=O,,"130 nM [rising, full curve, poor fit]",
CC(C)CCNC(=O)NC(=O)CSc1ccc(S(=O)(=O)N2CCOCC2)cn1,-15.4%,,"6510 nM [falling, single point]"
CCN(Cc1ccccc1)C(=O)COC(=O)CNC(=O)c1ccc(C)s1,,"5800 nM [rising, single point]","1640 nM [rising, single point]"
O=C(c1cc2nc(-c3ccco3)cc(C(F)(F)F)n2n1)N1CCCCCC1,-30.2%,"291 nM [falling, full curve, poor fit]",
CCOc1ccc(CNC(=O)C2CCC(=O)N2C2CCCC2)cc1OC (stereo not given),-20.3%,,"164 nM [falling, full curve, poor fit]"
O=C(NCc1ccccn1)c1cccs1,-173%,"29100 nM [falling, single point]",
O=C(O)C1C2C=CC3(O2)C1C(=O)N1c2ccccc2COC13 (stereo not given),-2.55%,,
CN(CC(=O)NCc1ccc(F)cc1)Cc1ccc(Br)cc1,,,"29100 nM [rising, single point]"
O=C(CCc1ccccc1)NNC(=S)NCCc1ccccc1,10.5%,,
O=C(O)COCC(=O)NCc1csc2ccc(Cl)cc12,18.9%,,"4110 nM [rising, full curve]"
O=Cc1c(N2CCN(c3cccc(Cl)c3)CC2)nc2ccccn2c1=O,,,"3660 nM [rising, single point]"
C=CCN1C(=O)NC(c2ccc(OC)cc2)(C(F)(F)F)S/C1=C(\C#N)c1nnc(N2CCOCC2)n1-c1ccccc1 (stereo not given),7.65%,,"25900 nM [falling, single point]"
CCCSc1cc(=O)n(-c2ccc(F)cc2)nc1C(=O)OCC,11.2%,"1460 nM [falling, full curve]","1300 nM [falling, full curve]"
O=C(NC(=S)Nc1ccccc1C(=O)O)c1cncc(Br)c1,28.7%,,"580 nM [falling, single point]"
COc1ccc(C(=O)/C=C/Nc2ccc(S(=O)(=O)Nc3cccc(C(C)=O)c3)cc2)cc1,-39%,"20600 nM [falling, single point]",
O=C(CN1CCN(c2ccccc2)CC1)Nc1ccccc1C(F)(F)F,17.2%,,"3660 nM [rising, full curve]"
CCCOc1ccc(/C(O)=C2/C(=O)C(=O)N(CCCN3CCOCC3)C2c2ccncc2)cc1 (stereo not given),37.1%,"32600 nM [rising, single point]","1160 nM [rising, partial curve]"

SMILES,cell number change,AC50 [1],AC50 [2]
CC(C#N)N1CCN(S(=O)(=O)c2ccc3c(c2)CCC3)CC1 (stereo not given),-3.95%,,
CCC(=O)N1CCc2cc(Br)cc(S(=O)(=O)NCCCN(CC)Cc3ccccc3)c21,3.6%,,
COc1ccc(-c2cc([C@H]3[C@@H]4C=CCC[C@@]4(C)C(=O)N3Cc3ccccc3)ccc2F)cc1OC,7.77%,,"2910 nM [rising, single point]"
CC(C)Nc1nnc(SC(C)C(=O)NCc2ccc3c(c2)OCO3)s1 (stereo not given),31%,"184 nM [rising, full curve]",
NNC(=O)Cn1c(-c2ccccn2)nc2ccccc21,-3.55%,,
CC(=O)Nc1cccc(NC(=O)CSc2nnnn2C)c1,-7.42%,,"731 nM [falling, full curve]"
COc1cccc(NC(=O)CC2SC(=Nc3ccccc3)NC2=O)c1 (stereo not given),-34.7%,"29100 nM [falling, single point]",
CCN(C(=O)CSc1nnnn1C)c1c(N)n(Cc2ccccc2)c(=O)[nH]c1=O,,,"116 nM [rising, single point]"
CCC(C)CCCCNC1=NCCS1 (stereo not given),68.7%,"18400 nM [rising, single point]",
CN1CCN(c2ccc(S(=O)(=O)N3CCCCC3)cc2NC(=O)COc2ccc([N+](=O)[O-])cc2)CC1,25.5%,,"11.6 nM [rising, full curve, poor fit]"
Nc1n[nH]c(=S)n1-c1ccc(Cl)cc1,9.79%,,"51.7 nM [falling, full curve, poor fit]"
Cc1c(C)n(Cc2ccc(F)cc2)c2ccc(C(=O)NCCCN3CCOCC3)cc12,,,"29100 nM [falling, partial curve]"
CS(=O)(=O)c1ccc2nc(NC(=O)Nc3ccc(Cl)cc3)sc2c1,8.31%,,"9200 nM [falling, partial curve, poor fit]"
Cc1oc2c(cc(NS(=O)(=O)c3ccc(F)cc3)c3ccccc32)c1C(=O)O,-17.1%,,"6510 nM [falling, partial curve, poor fit]"
Cc1cccc(C)c1NC(=O)c1cc(-c2ccccn2)nc2ccccc12,,"3660 nM [rising, partial curve, poor fit]",
CN1CCN(c2nc(-c3ccc(Cl)cc3)nc3ccccc23)CC1,11.1%,,
COC(=O)C(NC(=O)c1ccccc1Cl)(Nc1ncc(S(=O)(=O)c2ccc([N+](=O)[O-])cc2)s1)C(F)(F)F (stereo not given),,,"16400 nM [falling, partial curve]"
CCc1cccc(NC(=O)c2sc3nc4n(c(=O)c3c2C)CCC4)c1,,,"8200 nM [falling, partial curve]"
Cc1cc(C)c2c(C)nn(C3CCCCC3)c2n1,,"920 nM [rising, full curve]","1030 nM [rising, full curve]"
O=C1CCCN1CC(CN1CCOCC1)Sc1nnnn1-c1ccccc1 (stereo not given),3.63%,"820 nM [rising, full curve, poor fit]","731 nM [rising, full curve]"

# Quoted from the listing:
# COc1cccc(NC(=O)CC2SC(=Nc3ccccc3)NC2=O)c1 (stereo not given) – cell number change: -34.7%
# CN1CCN(c2nc(-c3ccc(Cl)cc3)nc3ccccc23)CC1 – cell number change: 11.1%
# Cc1c(C)n(Cc2ccc(F)cc2)c2ccc(C(=O)NCCCN3CCOCC3)cc12 – AC50 [2]: 29100 nM [falling, partial curve]
